Assay results reported in publication PMC4909244.
No constants are given. Whether binding was seen depends on the method and setting. Some results given as binding are weak or reduced against the parent protein; the word gives no strength.

Sequences of proteins named here, by UniProt entry; tags and fusion partners are left off. Residues count along the entry.
UniProt P42799, residues 39-474: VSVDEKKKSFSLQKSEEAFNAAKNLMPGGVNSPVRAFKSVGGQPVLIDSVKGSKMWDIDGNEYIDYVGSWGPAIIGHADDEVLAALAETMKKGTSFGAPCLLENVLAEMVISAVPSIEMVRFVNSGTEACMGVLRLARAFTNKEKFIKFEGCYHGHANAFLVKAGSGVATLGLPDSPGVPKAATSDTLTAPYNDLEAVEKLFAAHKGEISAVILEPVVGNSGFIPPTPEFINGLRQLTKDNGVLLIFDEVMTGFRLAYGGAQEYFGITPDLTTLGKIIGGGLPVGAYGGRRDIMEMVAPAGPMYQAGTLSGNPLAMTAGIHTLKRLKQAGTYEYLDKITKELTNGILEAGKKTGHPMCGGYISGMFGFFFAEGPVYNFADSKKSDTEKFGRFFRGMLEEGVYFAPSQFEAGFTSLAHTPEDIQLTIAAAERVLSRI

Molecular target: Glutamate-1-semialdehyde-2,1-aminomutase from Arabidopsis thaliana (AtGSA1) (Arabidopsis thaliana) (UniProt P42799)
Test: crystal structure; sitting-drop vapour diffusion at 4°C, 0.15 M potassium bromide, 30%(w/v) PEG 2000 MME; 1.25 Å; dimer in the asymmetric unit; both purified

Glutamate-1-semialdehyde-2,1-aminomutase from Arabidopsis thaliana (AtGSA1) (from UniProt P42799 39-474) (enzyme)
binding: binds
